# No constants are given. Whether binding was seen depends on the method and setting. Some binding calls cover weakened binding; strength is not graded here.
# Chains of the proteins cited; added tags and fusions are not shown. Residues count along the entry.
# UniProt P35968, residues 20-764: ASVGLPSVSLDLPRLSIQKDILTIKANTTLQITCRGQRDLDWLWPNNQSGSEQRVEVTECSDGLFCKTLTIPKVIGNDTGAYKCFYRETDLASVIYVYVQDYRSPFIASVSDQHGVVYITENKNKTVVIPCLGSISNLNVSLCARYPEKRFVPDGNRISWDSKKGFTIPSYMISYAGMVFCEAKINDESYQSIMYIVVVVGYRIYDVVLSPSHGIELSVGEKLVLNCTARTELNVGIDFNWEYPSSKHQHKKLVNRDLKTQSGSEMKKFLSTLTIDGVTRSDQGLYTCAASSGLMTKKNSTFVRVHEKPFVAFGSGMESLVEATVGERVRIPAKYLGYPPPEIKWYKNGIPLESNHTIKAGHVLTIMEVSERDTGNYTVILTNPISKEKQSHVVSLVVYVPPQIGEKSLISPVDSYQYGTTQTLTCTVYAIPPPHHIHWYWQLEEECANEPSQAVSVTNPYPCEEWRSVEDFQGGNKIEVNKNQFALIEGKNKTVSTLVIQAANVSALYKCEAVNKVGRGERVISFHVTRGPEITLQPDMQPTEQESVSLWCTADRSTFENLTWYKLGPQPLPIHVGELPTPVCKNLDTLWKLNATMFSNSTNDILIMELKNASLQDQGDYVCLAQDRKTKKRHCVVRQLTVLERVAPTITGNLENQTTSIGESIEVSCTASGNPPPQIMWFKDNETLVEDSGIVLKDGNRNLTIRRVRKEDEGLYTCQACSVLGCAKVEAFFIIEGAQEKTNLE
# Target: soluble fusion protein KDR-alkaline phosphatase (AP) (human) (UniProt P35968)
# Test: direct binding ELISA on immobilized KDR, detection with anti-E tag antibody-HRP, A450
row,binding,Binder
1,binds,"scFv p1C11 (scFv, soluble form made in E. coli; also called KDR-specific scFv p1C11) scFv: QVKLQQSGAELVGSGASVKLSCTTSGFNIKDFYMHWVKQRPEQGLEWIGWIDPENGDSDYAPKFQGKATMTADSSSNTAYLQLSSLTSEDTAVYYCNAYYGDYEGYWGQGTTVTVSSGGGGSGGGGSGGGGSDIELTQSPAIMSASPGEKVTITCSASSSVSYMHWFQQKPGTSPKLWIYSTSNLASGVPARFSGSGSGTSYSLTISRMEAEDAATYYCQQRSSYPFTFGSGTKLEIK"

# Target: soluble fusion protein KDR-alkaline phosphatase (AP) (human) (UniProt P35968)
# Test: direct binding ELISA on immobilized KDR, anti-E tag-HRP detection
row,binding,Binder
1,binds,"scFv p1C11 (scFv, soluble form made in E. coli; also called KDR-specific scFv p1C11) scFv: QVKLQQSGAELVGSGASVKLSCTTSGFNIKDFYMHWVKQRPEQGLEWIGWIDPENGDSDYAPKFQGKATMTADSSSNTAYLQLSSLTSEDTAVYYCNAYYGDYEGYWGQGTTVTVSSGGGGSGGGGSGGGGSDIELTQSPAIMSASPGEKVTITCSASSSVSYMHWFQQKPGTSPKLWIYSTSNLASGVPARFSGSGSGTSYSLTISRMEAEDAATYYCQQRSSYPFTFGSGTKLEIK"

# Target: soluble fusion protein KDR-alkaline phosphatase (AP) (human) (UniProt P35968)
# Test: screening of the second Fab library (D2C6 heavy chain, shuffled light chains)
row,Binder,binding
1,"SF2 (Fab, V domains shown) VH: EVQLVQSGGGLVKPGGSLRLSCAASGFTFSSYSMNWVRQAPGKGLEWVSSISSSSSYIYYADSVKGRFTISRDNAKNSLYLQMNSLRAEDTAVYYCARVTDAFDIWGQGTMVTVSS VL: QSVVTQPPSVSGAPGQRVTISCTGSSSNIGTGYDVHWYQQVPGSAPKLLIYAYTNRPSGVPDRFSGSKSGMSASLVIGGLQAEDEADYYCQSFDDSLNGLVFGPGTSVTVL",binds
2,"1121 (Fab, V domains shown) VH: EVQLVQSGGGLVKPGGSLRLSCAASGFTFSSYSMNWVRQAPGKGLEWVSSISSSSSYIYYADSVKGRFTISRDNAKNSLYLQMNSLRAEDTAVYYCARVTDAFDIWGQGTMVTVSS VL: DIQMTQSPSSVSASIGDRVTITCRASQGIDNWLGWYQQKPGKAPKLLIYDASNLDTGVPSRFSGSGSGTYFTLTISSLQAEDFAVYFCQQAKAFPPTFGGGTKVDIK",binds
3,"SD2 (Fab, V domains shown) VH: EVQLVQSGGGLVKPGGSLRLSCAASGFTFSSYSMNWVRQAPGKGLEWVSSISSSSSYIYYADSVKGRFTISRDNAKNSLYLQMNSLRAEDTAVYYCARVTDAFDIWGQGTMVTVSS VL: DIELTQSPSSVSASVGDRVTLTCRASQSIKRWLAWYQQKPGKAPRLLIYAASTLQSGVPSRFSGGGSGTDFTLTINSLQPEDFAIYYCQQANSFPPTFGPGTKVDIK",binds
4,"SA1 (Fab, V domains shown) VH: EVQLVQSGGGLVKPGGSLRLSCAASGFTFSSYSMNWVRQAPGKGLEWVSSISSSSSYIYYADSVKGRFTISRDNAKNSLYLQMNSLRAEDTAVYYCARVTDAFDIWGQGTMVTVSS VL: QSVVTQPPSVSGAPGQRVTISCTGSHSNFGAGTDVHWYQHLPGTAPRLLIHGDSNRPSGVPDRFSGSRSGTSASLAITGLRVEDEADYYCQSYDYGLRGWVFGGGTKLTVL",binds
5,"SA3 (Fab, V domains shown) VH: EVQLVQSGGGLVKPGGSLRLSCAASGFTFSSYSMNWVRQAPGKGLEWVSSISSSSSYIYYADSVKGRFTISRDNAKNSLYLQMNSLRAEDTAVYYCARVTDAFDIWGQGTMVTVSS VL: DVVMTQSPSSLSASVGDRVTITCRASQNINNYLNWYQQKPGKAPKLLIYAASTLQSGVPSRFSGSGSGTDFTLTITSLQPEDSATYYCQQYSRYPPTFGGGTKVEIT",binds
6,"SB5 (Fab, V domains shown) VH: EVQLVQSGGGLVKPGGSLRLSCAASGFTFSSYSMNWVRQAPGKGLEWVSSISSSSSYIYYADSVKGRFTISRDNAKNSLYLQMNSLRAEDTAVYYCARVTDAFDIWGQGTMVTVSS VL: QAVLTQPSSVSGAPGQRVTISCTGQSSNIGADYDVHWYQQFPGTAPKLLIYGHNNRPSGVPDRFSGSKSGTSVSLVISGLQAEDEADYYCQSYDSSLSGLVFGGGTKVTVL",binds
7,"SF7 (Fab, V domains shown) VH: EVQLVQSGGGLVKPGGSLRLSCAASGFTFSSYSMNWVRQAPGKGLEWVSSISSSSSYIYYADSVKGRFTISRDNAKNSLYLQMNSLRAEDTAVYYCARVTDAFDIWGQGTMVTVSS VL: QSVLTQPPSVSGAPGQRVTISCTGSHSNFGAGTDVHWYQHLPGTAPRLLIHGDTHRPSGVADRFSGSRSGASASLAITGLRVEDEADYYCQSYDYGLRGWVFGGGTKLTVL",binds

# Now from value to binder:
row,binding,Binder
1,binds,"SB10 (Fab, V domains shown) VH: EVQLVQSGGGLVKPGGSLRLSCAASGFTFSSYSMNWVRQAPGKGLEWVSSISSSSSYIYYADSVKGRFTISRDNAKNSLYLQMNSLRAEDTAVYYCARVTDAFDIWGQGTMVTVSS VL: QSALTQPASVSGSRGQSITLSCTGSSTDVGNYNYISWYQQHPGQAPKLLIYDVTSRPSGVSDRFSGSKSGLTASLTISGLQPEDEADYYCNSYSATDTLVFGGGTKLTVL"
2,binds,"SD5 (Fab, V domains shown) VH: EVQLVQSGGGLVKPGGSLRLSCAASGFTFSSYSMNWVRQAPGKGLEWVSSISSSSSYIYYADSVKGRFTISRDNAKNSLYLQMNSLRAEDTAVYYCARVTDAFDIWGQGTMVTVSS VL: QSVVTQPPSVSGAPGQRVTISCSGSRSNIGAHYEVQWYQQFPGAAPKLLIYGDTNRPSGVPDRFSASHSGTSASLAITGLQAEDEADYYCQSYDTSLRGPVFGGGTKLTVL"
3,binds,"SC7 (Fab, V domains shown) VH: EVQLVQSGGGLVKPGGSLRLSCAASGFTFSSYSMNWVRQAPGKGLEWVSSISSSSSYIYYADSVKGRFTISRDNAKNSLYLQMNSLRAEDTAVYYCARVTDAFDIWGQGTMVTVSS VL: DIQLTQSPSSVSASVGDSVTITCRASQDISSWLAWYQQKPGEAPKLLIYAASLLQSGVPSRFSGSGSGTDFALTINSLQPEDFATYFCQQADSFPPTFGQGTRLEIK"

# Target: soluble fusion protein KDR-alkaline phosphatase (AP) (human) (UniProt P35968)
# Test: phage display selection on immobilized KDR-AP and phage ELISA
row,binding,Binder
1,binds,"D2C6 (Fab, V domains shown) VH: EVQLVQSGGGLVKPGGSLRLSCAASGFTFSSYSMNWVRQAPGKGLEWVSSISSSSSYIYYADSVKGRFTISRDNAKNSLYLQMNSLRAEDTAVYYCARVTDAFDIWGQGTMVTVSS VL: EIVMTQSPATLSLSPGERATLSCRASQSVSSYLAWYQQKPGQAPRLLIYDSSNRATGIPARFSGSGSGTDFTLTISSLEPEDFATYYCLQHNTFPPTFGQGTKVEIK"
2,binds,"D1H4 (Fab, V domains shown) VH: EVQLVQSGGGLVKPGGSLRLSCAASGFTFSSYSMNWVRQAPGKGLEWVSSISSSSSYIYYADSVKGRFTISRDNAKNSLYLQMNSLRAEDTAVYYCARVTDAFDIWGQGTMVTVSS VL: QSALTQPASLSGSPGQSITISCAGTTTDLTYYDLVSWYQQHPGQAPKLVIYDGNKRPSGVSNRFSGSKSGNTASLTISGLQAEDEADYYCNSYVSSRFYVFGTGTKVTVL"
3,binds,"D2H2 (Fab, V domains shown) VH: EVQLVQSGGGLVKPGGSLRLSCAASGFTFSSYSMNWVRQAPGKGLEWVSSISSSSSYIYYADSVKGRFTISRDNAKDSLYLQMNSLRAEDTAVYYCARVTDAFDIWGQGTMVTVSS VL: DIQLTQSPSSVSASVGDRVTITCRASQGISSRLAWYQQKPGKAPKLLIYAASSLQTGVPSRFSGSGSGTDFTLTISSLQPEDFATYYCQQANRFPPTFGPGTKVDIK"

# Target: soluble fusion protein KDR-alkaline phosphatase (AP) (human) (UniProt P35968)
# Test: blocking ELISA: antibody pre-mixed with KDR-AP, transferred to immobilized VEGF165; plate-bound KDR-AP read at 405 nm
row,binding,Binder
1,binds,"scFv p1C11 (scFv, soluble form made in E. coli; also called KDR-specific scFv p1C11) scFv: QVKLQQSGAELVGSGASVKLSCTTSGFNIKDFYMHWVKQRPEQGLEWIGWIDPENGDSDYAPKFQGKATMTADSSSNTAYLQLSSLTSEDTAVYYCNAYYGDYEGYWGQGTTVTVSSGGGGSGGGGSGGGGSDIELTQSPAIMSASPGEKVTITCSASSSVSYMHWFQQKPGTSPKLWIYSTSNLASGVPARFSGSGSGTSYSLTISRMEAEDAATYYCQQRSSYPFTFGSGTKLEIK"

# Source: US20040242851A1 (published 2004)
